1 substance from article PMC6389929 can be followed below.

Protein sequences, listed by entry. Tags and fused reporters are not part of them. Lines headed by an entry give the natural chain unless they say otherwise; changes in a name come on top.
UniProt Q93009: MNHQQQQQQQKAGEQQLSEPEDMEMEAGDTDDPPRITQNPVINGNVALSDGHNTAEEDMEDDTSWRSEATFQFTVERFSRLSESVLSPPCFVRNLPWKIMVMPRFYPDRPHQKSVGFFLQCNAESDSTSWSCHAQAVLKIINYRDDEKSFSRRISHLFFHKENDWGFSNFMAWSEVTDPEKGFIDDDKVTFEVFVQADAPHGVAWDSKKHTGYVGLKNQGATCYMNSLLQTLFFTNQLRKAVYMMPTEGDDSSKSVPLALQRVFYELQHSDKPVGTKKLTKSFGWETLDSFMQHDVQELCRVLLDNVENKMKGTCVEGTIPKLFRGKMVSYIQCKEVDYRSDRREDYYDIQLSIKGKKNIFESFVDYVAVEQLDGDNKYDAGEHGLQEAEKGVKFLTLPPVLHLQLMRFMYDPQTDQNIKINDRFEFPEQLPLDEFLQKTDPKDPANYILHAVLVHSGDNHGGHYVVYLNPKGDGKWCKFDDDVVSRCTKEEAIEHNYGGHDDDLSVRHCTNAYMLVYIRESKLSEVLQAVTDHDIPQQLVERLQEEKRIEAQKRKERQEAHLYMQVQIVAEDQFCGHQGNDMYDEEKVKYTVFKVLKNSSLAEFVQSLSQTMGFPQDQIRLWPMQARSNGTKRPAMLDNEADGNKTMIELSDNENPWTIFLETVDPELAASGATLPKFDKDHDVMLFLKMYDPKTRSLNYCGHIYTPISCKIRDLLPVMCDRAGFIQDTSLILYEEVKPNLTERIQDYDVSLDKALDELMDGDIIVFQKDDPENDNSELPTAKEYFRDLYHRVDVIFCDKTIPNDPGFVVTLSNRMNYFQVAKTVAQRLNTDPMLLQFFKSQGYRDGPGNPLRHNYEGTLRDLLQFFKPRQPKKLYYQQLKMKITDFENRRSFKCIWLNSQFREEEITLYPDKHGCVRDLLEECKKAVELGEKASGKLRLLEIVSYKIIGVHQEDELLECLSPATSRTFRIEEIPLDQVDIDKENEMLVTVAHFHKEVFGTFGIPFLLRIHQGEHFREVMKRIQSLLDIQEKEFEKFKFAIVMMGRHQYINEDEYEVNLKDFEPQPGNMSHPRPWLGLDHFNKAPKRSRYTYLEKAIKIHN

For the experiment, the target named is T1, FLAG-tagged FBXO38 (WT) (UniProt Q6PIJ6).
T1 sequence: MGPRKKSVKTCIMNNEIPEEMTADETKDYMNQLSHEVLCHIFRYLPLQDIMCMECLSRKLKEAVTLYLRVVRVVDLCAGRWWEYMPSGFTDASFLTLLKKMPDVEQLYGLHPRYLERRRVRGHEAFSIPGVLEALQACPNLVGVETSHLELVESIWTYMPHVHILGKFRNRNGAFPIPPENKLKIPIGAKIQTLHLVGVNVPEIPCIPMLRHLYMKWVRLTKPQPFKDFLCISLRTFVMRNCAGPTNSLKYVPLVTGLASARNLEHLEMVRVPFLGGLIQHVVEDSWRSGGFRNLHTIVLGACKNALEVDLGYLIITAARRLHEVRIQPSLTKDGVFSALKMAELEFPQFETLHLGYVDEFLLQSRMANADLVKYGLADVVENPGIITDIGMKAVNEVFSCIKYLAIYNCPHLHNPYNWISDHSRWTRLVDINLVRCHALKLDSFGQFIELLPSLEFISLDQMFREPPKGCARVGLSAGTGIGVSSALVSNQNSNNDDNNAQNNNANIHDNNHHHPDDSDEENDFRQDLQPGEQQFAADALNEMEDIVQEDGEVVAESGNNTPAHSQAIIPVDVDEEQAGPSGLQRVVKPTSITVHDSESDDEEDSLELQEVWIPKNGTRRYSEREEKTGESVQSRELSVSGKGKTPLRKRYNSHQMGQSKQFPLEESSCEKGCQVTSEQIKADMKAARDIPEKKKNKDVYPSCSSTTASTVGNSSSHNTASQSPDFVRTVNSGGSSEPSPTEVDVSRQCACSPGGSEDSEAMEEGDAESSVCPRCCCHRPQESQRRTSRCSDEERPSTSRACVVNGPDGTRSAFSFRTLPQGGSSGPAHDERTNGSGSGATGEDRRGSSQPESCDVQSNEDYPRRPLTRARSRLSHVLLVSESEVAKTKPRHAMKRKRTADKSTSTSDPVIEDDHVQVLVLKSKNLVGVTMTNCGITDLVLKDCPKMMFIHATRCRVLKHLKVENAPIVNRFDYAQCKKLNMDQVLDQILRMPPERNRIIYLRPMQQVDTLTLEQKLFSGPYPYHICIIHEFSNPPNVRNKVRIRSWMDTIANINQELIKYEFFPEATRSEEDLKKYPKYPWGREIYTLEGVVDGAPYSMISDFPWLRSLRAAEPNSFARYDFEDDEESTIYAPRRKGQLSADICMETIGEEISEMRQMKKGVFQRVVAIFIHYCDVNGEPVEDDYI
Nature of the experiment: co-IP; HEK293T cells co-transfected with FLAG-FBXO38 and myc-USP7 constructs; RIPA buffer; M2 anti-FLAG resin overnight at 4 °C; Western blot for FLAG and myc. (A western blot detects proteins with antibodies after separation by electrophoresis.)

No constants are given. Whether binding was seen depends on the method and setting. Binding seen in cells or lysates may run through a third protein. Sequences can lack the tags named with a protein.

For the substance “myc-USP7 double pocket mutant (DW/Ubl2) (from UniProt Q93009) (enzyme)”, the binding entry is “no binding”.
